# Percent effect of library compounds

Protein sequences, listed by entry. Tags and fused reporters are not part of them. Residues count along the entry.
UniProt P9WFT3, whole entry: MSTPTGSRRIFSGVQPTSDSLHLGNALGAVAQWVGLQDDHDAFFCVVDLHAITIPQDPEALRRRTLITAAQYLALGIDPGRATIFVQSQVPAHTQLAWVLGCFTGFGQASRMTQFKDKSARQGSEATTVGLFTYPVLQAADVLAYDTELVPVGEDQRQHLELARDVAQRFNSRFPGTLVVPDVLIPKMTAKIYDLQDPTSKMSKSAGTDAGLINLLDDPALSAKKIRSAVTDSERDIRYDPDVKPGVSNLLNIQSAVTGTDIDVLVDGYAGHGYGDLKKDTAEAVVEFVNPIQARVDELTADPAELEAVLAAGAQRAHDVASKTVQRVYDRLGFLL
UniProt I6X8D2, whole entry: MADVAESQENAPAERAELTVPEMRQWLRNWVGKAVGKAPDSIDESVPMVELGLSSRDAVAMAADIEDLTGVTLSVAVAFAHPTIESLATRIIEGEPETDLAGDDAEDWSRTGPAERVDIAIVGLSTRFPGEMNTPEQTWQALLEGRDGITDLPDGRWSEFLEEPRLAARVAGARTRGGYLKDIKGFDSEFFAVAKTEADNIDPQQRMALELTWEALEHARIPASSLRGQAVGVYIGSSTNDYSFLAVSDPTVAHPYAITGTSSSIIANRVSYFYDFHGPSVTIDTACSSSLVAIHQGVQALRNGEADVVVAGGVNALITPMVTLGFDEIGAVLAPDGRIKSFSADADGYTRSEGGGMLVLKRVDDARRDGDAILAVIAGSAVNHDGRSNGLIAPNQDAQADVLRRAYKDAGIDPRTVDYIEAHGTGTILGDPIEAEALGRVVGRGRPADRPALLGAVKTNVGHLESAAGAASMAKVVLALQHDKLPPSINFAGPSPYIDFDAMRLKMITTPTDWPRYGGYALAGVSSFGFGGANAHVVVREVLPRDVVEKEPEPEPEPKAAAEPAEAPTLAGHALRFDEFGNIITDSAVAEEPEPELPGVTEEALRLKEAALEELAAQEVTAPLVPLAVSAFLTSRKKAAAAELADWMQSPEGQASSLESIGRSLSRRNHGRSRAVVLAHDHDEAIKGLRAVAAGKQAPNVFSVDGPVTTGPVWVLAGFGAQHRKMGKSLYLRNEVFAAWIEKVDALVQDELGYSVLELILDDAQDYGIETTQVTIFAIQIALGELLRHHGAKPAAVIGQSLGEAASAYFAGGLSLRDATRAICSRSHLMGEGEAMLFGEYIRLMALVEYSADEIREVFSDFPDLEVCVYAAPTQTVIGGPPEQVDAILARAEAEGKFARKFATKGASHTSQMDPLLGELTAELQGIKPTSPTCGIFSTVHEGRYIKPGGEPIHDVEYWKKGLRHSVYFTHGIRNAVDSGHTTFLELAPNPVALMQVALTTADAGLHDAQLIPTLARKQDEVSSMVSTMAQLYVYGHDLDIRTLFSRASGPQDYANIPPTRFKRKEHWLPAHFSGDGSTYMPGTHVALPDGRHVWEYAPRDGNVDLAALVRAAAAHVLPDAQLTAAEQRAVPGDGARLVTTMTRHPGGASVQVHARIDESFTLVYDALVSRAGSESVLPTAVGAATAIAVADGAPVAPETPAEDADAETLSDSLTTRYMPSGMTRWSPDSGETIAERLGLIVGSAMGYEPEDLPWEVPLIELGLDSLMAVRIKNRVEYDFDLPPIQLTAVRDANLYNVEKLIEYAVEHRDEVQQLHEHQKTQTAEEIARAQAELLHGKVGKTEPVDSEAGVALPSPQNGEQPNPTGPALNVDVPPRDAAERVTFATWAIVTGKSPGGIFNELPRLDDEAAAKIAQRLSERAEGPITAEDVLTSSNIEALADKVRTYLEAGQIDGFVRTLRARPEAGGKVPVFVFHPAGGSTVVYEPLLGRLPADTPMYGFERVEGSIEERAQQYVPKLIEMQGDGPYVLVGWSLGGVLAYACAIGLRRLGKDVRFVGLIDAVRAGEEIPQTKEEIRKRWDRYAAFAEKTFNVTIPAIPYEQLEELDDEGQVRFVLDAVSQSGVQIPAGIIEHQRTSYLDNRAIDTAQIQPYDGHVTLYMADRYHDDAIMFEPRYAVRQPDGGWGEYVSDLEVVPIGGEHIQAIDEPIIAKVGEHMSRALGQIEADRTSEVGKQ
UniProt A4I591, 1-473: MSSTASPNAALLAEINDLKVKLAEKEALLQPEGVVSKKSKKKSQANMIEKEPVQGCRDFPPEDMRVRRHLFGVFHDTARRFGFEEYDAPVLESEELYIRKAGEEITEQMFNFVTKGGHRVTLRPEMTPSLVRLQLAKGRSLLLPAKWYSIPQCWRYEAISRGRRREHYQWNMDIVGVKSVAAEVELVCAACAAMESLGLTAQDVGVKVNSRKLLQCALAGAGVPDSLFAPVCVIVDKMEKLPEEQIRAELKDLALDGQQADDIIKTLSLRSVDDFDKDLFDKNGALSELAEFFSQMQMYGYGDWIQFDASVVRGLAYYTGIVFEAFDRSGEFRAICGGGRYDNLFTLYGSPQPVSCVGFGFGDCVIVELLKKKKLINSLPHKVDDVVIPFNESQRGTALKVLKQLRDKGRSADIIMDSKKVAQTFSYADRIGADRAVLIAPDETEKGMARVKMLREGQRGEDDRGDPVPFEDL
UniProt Q4DA54, 1-478: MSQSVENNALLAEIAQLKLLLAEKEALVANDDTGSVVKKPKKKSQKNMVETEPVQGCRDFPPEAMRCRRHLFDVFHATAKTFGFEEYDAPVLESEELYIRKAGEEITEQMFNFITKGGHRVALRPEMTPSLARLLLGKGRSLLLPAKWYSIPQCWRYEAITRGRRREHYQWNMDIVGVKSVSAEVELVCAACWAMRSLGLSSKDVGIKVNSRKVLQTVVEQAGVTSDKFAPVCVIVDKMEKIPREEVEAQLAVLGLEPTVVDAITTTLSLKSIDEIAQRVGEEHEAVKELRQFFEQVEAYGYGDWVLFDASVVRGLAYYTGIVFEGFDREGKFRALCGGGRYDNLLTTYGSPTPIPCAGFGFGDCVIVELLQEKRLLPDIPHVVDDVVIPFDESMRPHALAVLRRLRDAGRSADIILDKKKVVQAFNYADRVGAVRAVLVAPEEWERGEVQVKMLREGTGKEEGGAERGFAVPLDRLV

MtTrpRS: 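Tryptophan-tRNA ligase, Mycobacterium tuberculosis (UniProt P9WFT3). Enzyme assay of tryptophanyl-tRNA synthetase; the read-out is not stated. Tested at 10 µM. Direction is not recorded; retested compounds ran higher, which suggests that high means inhibition. Size under these conditions: about 65,000 compounds, about 64 of them at 50% or above in at least one test.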
Pks13 thioesterase: 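Enzyme assay of the thioesterase domain of polyketide synthase 13; the read-out is not stated. Target: Polyketide synthase Pks13, Mycobacterium tuberculosis (UniProt I6X8D2). Concentration: 30 µM. Higher reads as stronger inhibition (inferred from which compounds were picked for retests). About 67,000 compounds were tested under these conditions; 0.46% (about 300) showed 50% or more at least once.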
LiHisRS: 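Histidine-tRNA ligase, Leishmania infantum (UniProt A4I591). Enzyme assay of histidyl-tRNA synthetase; the read-out is not stated. Compounds at 30 µM. Direction is inferred from retests: higher values go with stronger inhibition. The assay is labelled LdHisRS but filed under L. infantum. About 69,000 compounds were tested under these conditions; 0.6% (about 410) showed 50% or more at least once.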
TcHisRS: 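Histidine-tRNA ligase, Trypanosoma cruzi CL Brener (UniProt Q4DA54). Enzyme assay of histidyl-tRNA synthetase; the read-out is not stated. Concentration: 30 µM. Direction is inferred from retests: higher values go with stronger inhibition. Size under these conditions: about 69,000 compounds, about 31 of them at 50% or above in at least one test.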

Each number is a percent effect as filed.
The controls that fix the scale are not given in the record; negative values are as filed.
Compounds were drawn at random from those tested, without regard to their results.

{"smiles": "COCCc1ncc(CNC2(c3ccc(Cl)cc3Cl)CC2)cn1", "MtTrpRS": 2.957, "LiHisRS": 13.68, "TcHisRS": 2.239}
{"smiles": "Cc1nc(C)n(CC2CCCCN2CC(=O)NC2CCOCC2)n1", "stereo": "configuration not stated", "MtTrpRS": 0.3997, "Pks13 thioesterase": -8.373, "LiHisRS": 10.96, "TcHisRS": 2.29}
{"smiles": "CN(C)S(=O)(=O)N1CC[C@]2(C[C@@H](Oc3ncccc3F)CO2)C1", "MtTrpRS": -0.1744, "Pks13 thioesterase": -10.81, "LiHisRS": 9.091, "TcHisRS": 2.479}
{"smiles": "CN1C(=O)C2(CCN(C(=O)c3cccnc3)CC2)c2cccc(F)c21", "MtTrpRS": -1.057, "Pks13 thioesterase": -10.26, "LiHisRS": 5.263, "TcHisRS": 6.452}
{"smiles": "NS(=O)(=O)N1CCc2ccc(NC(=O)CC(F)(F)F)cc21", "MtTrpRS": -0.4409, "LiHisRS": 31.51, "TcHisRS": 2.956}
{"smiles": "Cc1ccccc1C(=O)N1CC[C@H](O)[C@@H](N2CCOCC2)CC1", "MtTrpRS": -3.958, "Pks13 thioesterase": 10.74, "LiHisRS": 8.451, "TcHisRS": 9.091}
{"smiles": "CC1CCN(c2ccc(C(=O)N3CCCC3c3ccc[nH]3)cn2)CC1", "stereo": "configuration not stated", "MtTrpRS": 9.1, "Pks13 thioesterase": 3.905, "LiHisRS": 14.51, "TcHisRS": 66.85}
{"smiles": "c1cn2c(n1)CO[C@@H](CNCc1ccc3c(c1)OCO3)C2", "MtTrpRS": 0.9863, "Pks13 thioesterase": -21.71, "LiHisRS": -28.38, "TcHisRS": 6.522}
{"smiles": "CCc1n[nH]c(C2CN(C(=O)CCc3cscn3)CCO2)n1", "stereo": "configuration not stated", "MtTrpRS": -5.824, "Pks13 thioesterase": -10.39, "LiHisRS": 11.01, "TcHisRS": 5.882}
{"smiles": "c1ccc(COC[C@@H]2CC[C@H]3[C@H](CCN3c3ncccn3)O2)nc1", "MtTrpRS": -2.199, "Pks13 thioesterase": 0.3578, "LiHisRS": 11, "TcHisRS": 8.163}
{"smiles": "CCn1nc(C)c2nc(C(C)C)nc(NCCOC)c21", "MtTrpRS": 2.211, "Pks13 thioesterase": -29.3, "LiHisRS": 17.48, "TcHisRS": 1.639}
{"smiles": "COC(=O)C(c1ccccc1)N(C)C(=O)c1ccnc(C)n1", "stereo": "configuration not stated", "MtTrpRS": -3.455, "Pks13 thioesterase": -2.741, "LiHisRS": 3.509, "TcHisRS": -2.006}
{"smiles": "CNC(=O)CN1CCCC1c1ccccc1Br", "stereo": "configuration not stated", "MtTrpRS": 0.000006, "Pks13 thioesterase": -21.04, "LiHisRS": 13.33, "TcHisRS": 7.143}
{"smiles": "CC(C)(NC(=O)c1cnc(-c2ccccc2F)s1)C(N)=O", "MtTrpRS": 0.4167, "Pks13 thioesterase": -12.86, "LiHisRS": 17.2, "TcHisRS": 5.699}
{"smiles": "O=C(N1CCCC(n2cncn2)C1)C1(c2ccccc2F)CCCC1", "stereo": "configuration not stated", "MtTrpRS": -6.09, "Pks13 thioesterase": -1.983, "LiHisRS": 13.39, "TcHisRS": 4.046}
{"smiles": "CN1CCN(c2cc(CCNC(=O)C3CCC3)nc(C3CC3)n2)CC1", "MtTrpRS": -0.5853, "Pks13 thioesterase": -44.52, "LiHisRS": 13.89, "TcHisRS": 7.027}
{"smiles": "Cc1ccnc(NCc2cccc(OCCN3CCOCC3)c2)n1", "MtTrpRS": -2.204, "Pks13 thioesterase": 7.09, "LiHisRS": -1.613, "TcHisRS": 3.247}
{"smiles": "Cc1nc(CNC(=O)Nc2ccc3c(c2)CCCC(=O)N3)sc1C", "MtTrpRS": -0.0748, "Pks13 thioesterase": -47.47, "LiHisRS": 17.24, "TcHisRS": 4.712}

The last 2 entries again:

Result for Cc1ccnc(NCc2cccc(OCCN3CCOCC3)c2)n1 was MtTrpRS: -2.204%; Pks13 thioesterase: 7.09%; LiHisRS: -1.613%; TcHisRS: 3.247%.
Result for Cc1nc(CNC(=O)Nc2ccc3c(c2)CCCC(=O)N3)sc1C was MtTrpRS: -0.0748%; Pks13 thioesterase: -47.47%; LiHisRS: 17.24%; TcHisRS: 4.712%.

Data taken from ChEMBL document CHEMBL3988442, “University of Dundee, Small-Polar-MMV Screening Library” (2021).